Experimental data taken from the supplement of paper PMC12823440, “Inhibitors supercharge kinase turnover through native proteolytic circuits” (Nature, 2025).
Counter-ions that a name gives are not always drawn. Some of the results follow. Hit calls seldom repeat between salt and free forms of one compound.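 In K562 cells expressing nanoluciferase-fused kinases, luminescence was recorded at 4 h intervals between 2 and 18 h, normalized as percent of control with DMSO at 100% and a positive control at 0%. A significant (2 sigma) signal drop marks a time point as decreased. The authors' rule for a hit is not shown and takes in more than the number of time points.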

The chains behind the UniProt entries cited, without tags or fusion partners. Where a name states a change or a piece, a line headed by the entry shows the natural chain unless it says otherwise.
UniProt Q13546: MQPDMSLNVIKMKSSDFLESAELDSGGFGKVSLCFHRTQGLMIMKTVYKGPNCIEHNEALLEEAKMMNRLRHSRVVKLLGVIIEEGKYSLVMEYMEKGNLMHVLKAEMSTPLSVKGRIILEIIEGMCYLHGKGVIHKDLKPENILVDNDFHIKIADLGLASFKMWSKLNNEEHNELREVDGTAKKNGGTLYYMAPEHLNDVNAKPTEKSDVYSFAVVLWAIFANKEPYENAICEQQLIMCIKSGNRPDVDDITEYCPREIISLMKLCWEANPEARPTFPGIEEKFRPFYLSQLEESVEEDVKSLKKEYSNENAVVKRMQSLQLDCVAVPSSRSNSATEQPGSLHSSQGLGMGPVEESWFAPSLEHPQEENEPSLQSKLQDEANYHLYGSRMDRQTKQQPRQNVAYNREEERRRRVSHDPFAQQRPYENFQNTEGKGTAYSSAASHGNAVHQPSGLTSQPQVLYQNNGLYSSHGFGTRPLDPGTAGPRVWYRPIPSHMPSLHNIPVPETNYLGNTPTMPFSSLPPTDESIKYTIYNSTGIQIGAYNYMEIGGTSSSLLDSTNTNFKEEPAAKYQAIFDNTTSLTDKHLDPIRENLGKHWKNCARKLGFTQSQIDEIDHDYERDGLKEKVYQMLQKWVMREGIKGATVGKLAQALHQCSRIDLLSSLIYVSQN

These compounds were tested against RIPK1 (UniProt Q13546) (assay: number of time points (of 5) at which kinase-Nluc abundance scored as decreased, DMSO-normalised (count); higher = more persistent destabilization). Conditions: K562; 2-18 h.

| Compound | number of time points |
| --- | --- |
| Nc1ncnc2c1ncn2[C@@H]1O[C@@H]2COP(O)(=S)O[C@H]2[C@H]1O (stereo not given in full) [Sp-cAMPS (sodium salt)] (10 µM) | 0 |
| CN(C)C(=O)c1ccc(Cn2c(C(=O)O)cc3c(Br)cc(Sc4ccc(Cl)c(Cl)c4)cc32)cc1 [Rheb inhibitor NR1] (10 µM) | 0 |
| C/C=C(/C)C(=O)O[C@H]1[C@@H]2[C@H](C)C(=O)O[C@@H]2C[C@@H](C)[C@@H]2C=CC(=O)[C@]21C [Brevilin A] (2.5 µM) | 0 |

Each compound was assayed against RIPK2 (UniProt O43353) in the same assay as above. Conditions: K562; 2-18 h.

| Compound | number of time points |
| --- | --- |
| C[C@H]1CC[C@]2(NC1)O[C@H]1C[C@H]3[C@@H]4CC[C@H]5C[C@@H](O[C@@H]6O[C@H](CO)[C@H](O[C@@H]7O[C@H](CO)[C@@H](O)[C@H](O[C@@H]8OC[C@@H](O)[C@H](O)[C@H]8O)[C@H]7O[C@@H]7O[C@H](CO)[C@@H](O)[C@H](O)[C@H]7O)[C@H](O)[C@H]6O)CC[C@]5(C)[C@H]4CC[C@]3(C)[C@H]1[C@@H]2C [Tomatine] (2.5 µM) | 0 |
| CCCCNc1nc(N)c2[nH]c(=O)n(Cc3ccc(C)nc3)c2n1 (10 µM) | 0 |
| C[C@H](CCC(=O)O)C[C@H](C)C[C@H](C)C(=O)/C=C(\O)[C@H](C)C[C@H](C)C/C=C/[C@@H](C)[C@@H](O)[C@@H](C)[C@@H](O)C[C@@H]1CC[C@@](C)([C@H]2CC[C@@](C)([C@@H](C)O)O2)O1 [Ionomycin (calcium)] (2.5 µM) | 0 |
| CCOC(=O)c1c(/C(C#N)=C\N)c2ccc(Cl)c(Cl)c2n1C (10 µM) | 0 |
| CC(=O)OC(C)(C)/C=C/C(=O)[C@](C)(O)[C@H]1[C@H](O)C[C@@]2(C)[C@@H]3CC=C4[C@@H](C=C(O)C(=O)C4(C)C)[C@]3(C)C(=O)C[C@]12C [Cucurbitacin E] (2.5 µM) | 3 |
| O=C1C=CC[C@@H]2[C@H]3CCCN4CCC[C@@H](CN12)[C@@H]34 [Sophocarpine (monohydrate)] (2.5 µM) | 0 |
| C=CC(=O)Nc1ccc2[nH]c(=O)n(C3CCN(Cc4ccc(-c5nc6cc[nH]c(=O)c6cc5-c5ccccc5)cc4)CC3)c2c1 [Borussertib] (10 µM) | 0 |
| O=C1C=CC[C@@H]2[C@H]3CCCN4CCC[C@@H](CN12)[C@@H]34 [Sophocarpine] (10 µM) | 0 |
| C=CC(=O)N[C@H]1C=C(C)c2c(-c3cnc4ccccc4c3)c3c(N)ncnc3n2C1 (10 µM) | 0 |
| Cn1cc(C2=C(c3cn(C4CCN(Cc5ccccn5)CC4)c4ccccc34)C(=O)NC2=O)c2ccccc21 [Enzastaurin] (10 µM) | 0 |
| CCN1CCN(C(=O)Cc2ccc(Nc3ncc(F)c(Nc4ccc(C(=O)Nc5ccccc5Cl)cc4)n3)cc2)CC1 (2.5 µM) | 0 |
| C[C@H]1CC[C@]2(NC1)O[C@H]1C[C@H]3[C@@H]4CC[C@H]5C[C@@H](O)CC[C@]5(C)[C@H]4CC[C@]3(C)[C@H]1[C@@H]2C [Tomatidine (hydrochloride)] (10 µM) | 0 |
| O=[N+]([O-])/C=C/c1ccc2c(c1)OCO2 (2.5 µM) | 0 |
| NCCc1cn(S(=O)(=O)c2c(Cl)nc3sccn23)c2ccccc12 (10 µM) | 0 |
| COc1ccc(N(C(=O)Oc2c(C)cccc2C)c2ccnc(Nc3ccc(N4CCN(C)CC4)cc3)n2)c(OC)c1 (2.5 µM) | 0 |
| Cc1ccccc1-n1c(Cn2cnc3c(N)ncnc32)nc2cccc(C)c2c1=O (10 µM) | 0 |
| Cc1[nH]ncc1-c1cc2nc([C@H]3CC4CCN3CC4)[nH]c(=O)c2s1 [(R)-Simurosertib] (10 µM) | 0 |
| CC1C(=O)OC2C(O)C34C5OC(=O)C3(OC3OC(=O)C(O)C34C(C(C)(C)C)C5O)C12O (stereo not given) [Ginkgolide C] (10 µM) | 0 |
| O=C(/C=C/c1ccccc1)OC[C@H]1O[C@@H](O[C@@H]2OC=C[C@H]3[C@H](O)[C@@H]4O[C@]4(CO)[C@@H]23)[C@H](O)[C@@H](O)[C@@H]1O [Picroside I] (10 µM) | 0 |
| CC1=C[C@]23C(=O)[C@@H](C=C(CO)[C@@H](O)[C@]2(O)[C@H]1O)[C@H]1[C@@H](C[C@H]3C)C1(C)C [Ingenol] (10 µM) | 0 |
| O=Cc1cn(Cc2ccc(Cl)cc2)c2ccccc12 [Oncrasin-1] (10 µM) | 0 |
| C[C@@H]1CC[C@H]2[C@@H](C)C(=O)O[C@@H]3O[C@@]4(C)CC[C@@H]1[C@]32OO4 [Artemisinin] (10 µM) | 0 |

A second format for part of the listing above.
Compound | number of time points
CC1=C[C@]23C(=O)[C@@H](C=C(CO)[C@@H](O)[C@]2(O)[C@H]1O)[C@H]1[C@@H](C[C@H]3C)C1(C)C [Ingenol] (10 µM) | 0
C[C@@H]1CC[C@H]2[C@@H](C)C(=O)O[C@@H]3O[C@@]4(C)CC[C@@H]1[C@]32OO4 [Artemisinin] (10 µM) | 0
